The values below come from paper PMC10883267 (2023).

By UniProt entry, the sequences of proteins in these tests, tags left out. Where a name states a change or a piece, a line headed by the entry shows the natural chain unless it says otherwise.
UniProt A0ACM8QBM4: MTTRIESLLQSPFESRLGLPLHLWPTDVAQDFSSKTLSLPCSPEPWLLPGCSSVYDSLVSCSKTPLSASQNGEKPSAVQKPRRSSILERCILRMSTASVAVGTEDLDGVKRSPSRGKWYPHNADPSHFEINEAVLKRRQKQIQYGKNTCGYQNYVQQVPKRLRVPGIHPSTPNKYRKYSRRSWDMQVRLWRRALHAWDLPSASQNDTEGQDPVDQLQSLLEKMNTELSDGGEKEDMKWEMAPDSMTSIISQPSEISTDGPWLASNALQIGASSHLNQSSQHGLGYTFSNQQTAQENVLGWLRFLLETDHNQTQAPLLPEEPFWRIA
UniProt Q6PHD4: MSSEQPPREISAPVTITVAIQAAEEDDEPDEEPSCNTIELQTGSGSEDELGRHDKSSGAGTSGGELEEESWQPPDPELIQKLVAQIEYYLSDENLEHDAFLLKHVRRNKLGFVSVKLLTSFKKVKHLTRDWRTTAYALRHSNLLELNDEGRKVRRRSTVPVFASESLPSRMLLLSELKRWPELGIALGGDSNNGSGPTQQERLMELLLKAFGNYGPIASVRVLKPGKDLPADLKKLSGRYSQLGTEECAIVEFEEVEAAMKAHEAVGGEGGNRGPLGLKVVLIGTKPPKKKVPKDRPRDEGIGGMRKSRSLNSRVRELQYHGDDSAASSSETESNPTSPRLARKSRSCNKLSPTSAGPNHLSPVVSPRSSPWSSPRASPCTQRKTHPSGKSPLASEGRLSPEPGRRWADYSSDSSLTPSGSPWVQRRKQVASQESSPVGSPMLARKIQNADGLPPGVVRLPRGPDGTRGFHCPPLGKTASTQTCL
UniProt Q803B9: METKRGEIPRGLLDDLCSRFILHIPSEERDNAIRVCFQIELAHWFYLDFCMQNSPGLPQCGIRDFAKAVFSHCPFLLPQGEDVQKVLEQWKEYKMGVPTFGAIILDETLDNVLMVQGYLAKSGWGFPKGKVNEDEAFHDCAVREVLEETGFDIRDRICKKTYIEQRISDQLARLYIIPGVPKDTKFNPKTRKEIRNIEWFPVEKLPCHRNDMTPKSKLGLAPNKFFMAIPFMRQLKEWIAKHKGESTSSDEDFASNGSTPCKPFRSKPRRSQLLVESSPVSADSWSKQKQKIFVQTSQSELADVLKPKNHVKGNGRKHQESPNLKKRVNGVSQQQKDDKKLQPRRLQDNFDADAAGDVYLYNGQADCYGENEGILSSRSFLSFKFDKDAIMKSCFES

These are yes or no findings as the source states them, for the method shown. In cells and extracts the contact can be indirect. These calls come from enrichment with a bait or labelling near it, and not all partners need be listed. For part of these data: No binding means not detected with the bait. Where a sequence is shown, tags or fusion partners need not be part of it.

First the molecules themselves.
B1: zebrafish Larp6b (protein, UniProt A0A8M1NE68 1-471)
chain: MSSPGFTDIFHCEDTQQSKGLFSYTDDGLNDSLDGSSTDLTDVFEEDFCEGELWIPPNDDVTQQIATQLENYLSDENLSDDAFLLKHVQRNKMGYVSLKLLTSFKKIRDLTRDWRTTLAAARTSPQLEVNEMGTKVRRRTPVPDWLLCIPTSKLLLAWNFLDGAGPVKEKFESPGVEQLGIMEAAMRVFSPYGTISSLRILRPGKEIPAELKRYTKKHLELGRKVCAVVEYEYLEGARKAFEALKVEEQQGGRGICVVLLGSRGTRKPGCSQGLVDEEQEDCIDIDVLKRPDRKARQFVYSLEDSAVCSSSESDFAPASPRPNRRVSRPQALYGSPLAIPRVSTFRSDPYRNPLGSPVGSPLQPRKLFPCSHVTSPLATHPFSSTPSGAGTSFKYKASGELSPDDLGFTSSPWVQRRKNAAQVIQPEMASSMSPSQLIKSLSVLVVRQPVGPDGTKGFHNCIGRGKVLLPQ
B2: zebrafish Zar1 (protein, UniProt Q7T3T8 1-329)
chain: MATYGNETVDNYLYSSYNPYYYKYPKFKGWRQKAYFTNYGEGETYFDNHHRAQLKSILSQINPNLTPRLRKANTKDVGVQVNPKTDASIQCSLGPRTLLARKRDALRRRRQEVQTPGSPVSSGGVRFPRTQAVYSPVESRRLVSLFREEGEEEEDTDLEVTETVDSAEKLESAEKNVRKQGKKSAKQPLSPEKNINKQTETNEENTNEPVKTEQDDLKSKARVRFQSLEQKYGFYHCKDCNLRWESAYVWCVQGTNKVYFKQFCRTCQKSFNPYRVEDIACQTCKKARCTCSVKSRHVDPKRPHRQDLCGRCKGKRLSCDSTFSFKYII
B3: zebrafish Edc4 (protein, UniProt Q1LUT1 1-1384)
chain: MASSSSMDIEGATQHLRDILKLDRPGNSAEASLVESQRKPSFNGELNGVLGSDLMGAAMVEPTVHNSDKLNGQDTQTICLSGDDGSICVPIRANIVEIVSSRDSSIDSKARGSNKVKIQPVAKYDWEHKYYYGNLIAVSNTYLAYAIRGANNHSMIRVLHLSSTERSLLKGFTGAVTDLAFAHLDSTLLGCVDEAGNMFIWQLTSHSSKIQDEVIVHIRRPEDTPLNSNRRLIWCPFIPEDNDESPEDACQTLALLHEDRAEVWDLDILRSNNSSWPVDATELKEGFITIRGHAARISEGALSPDGTVLATASHDGYVKFWQIYIEGQDQPRCLHEWQPHNGQPLSCLLFCDNHKKQDPDVPFWRFLITGADQNQELKMWCTVSWTCLQTIRFSPDPFNCGVLPSLKASLDLSAEFLILSDVQRKVLYVMELLQDQEKGRASFTAVSEFLLTHPVLSFGVQDVSRARLRHTEVLPPEEESESMTAEGNQGTSESRSGIQIKLYCVHTKSLQDVQIWFQPNQGDSSSLFMPQSGSQDGFSFSDPLADLNVEAMSSDKESGDSGSQNDLSKILPLPSPADFMSPAPSALPKLMTPDAFMTPSASMPASPGSSASSLTIVTAMSSSDSGARGGDDLTQSPKMSVECVNSSFANAGSPRSNSILISGLGENIQVSPPNPPLSLDLQAIDPMVVPQASPTRARSPDVISSASTAMSQDIPEIASETLQRGLSGANADSGPILHSDSMASAASILHLLSPRARSSAEHSLLPLELGAASVDGEQRLSNTPSLLETALSQENAGAAGGSCSDSSVNHAWPAAPDITRETRNSLRDNGLGDCSREEIKDRHISSPYHRRTYHLTQNDSQDASAEQSDHDDEVASLASSSGNCGPRSSHRLPVKDWKTSPRSSPKLKRKSKKDEGESSQSRQIESQMSTEVQDELLQMLRSQQREIAELRQNQLDLLQRVTSHMDAVQSSMMAHIEHAMLAQQEQEQRRMERILVEGQSRNQQLQDQLVQQLVQTLNNSLCNRLEKVLREEMKKTVPQTISKSLEPVTGQMNSTIAAKLTAVEGALKENVTKVVKSKNTTDAIGRAAAEAMQGPIQAAYKETFQSIVLPVFERGCQSMFQQINDSFKQGTNEYIQQLETHIKNRKQRDQDTRDPVIGQLQQMIDSLQSSQDQLASTVTASVSSDVQHQLHMIVGNLQDSILTQVQRIVKGEVSLAMKEQQAAVTSSIMQAMRSAAGTPVPSAHLDYQAQQASILQLLQQGQLNEAFQQALSAADLNLVLYVCETIDSQQVFGQQPCPLHQAVLLSLIQQLSTNLSTRTELKISYLEDAVMNLDHGDPVTRDHMSAVLTQVRQKLFLFLQQDAHSPMSKRARRLMMMLQGLVNH

One experiment addresses T1, 3xflag-sfGFP-eIF4E1b (zebrafish, full length) (zebrafish) (UniProt Q9PW28).
T1 sequence: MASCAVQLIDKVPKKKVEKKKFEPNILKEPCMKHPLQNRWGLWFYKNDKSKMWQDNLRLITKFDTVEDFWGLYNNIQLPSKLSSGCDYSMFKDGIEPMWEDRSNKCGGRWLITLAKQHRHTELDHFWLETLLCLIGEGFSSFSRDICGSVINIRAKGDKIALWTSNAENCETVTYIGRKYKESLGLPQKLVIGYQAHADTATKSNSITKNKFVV
Briefly: affinity purification with mass spectrometry; anti-GFP agarose beads, lysates of transgenic zebrafish oocytes (early, late) and embryos (8-cell, 3 hpf) expressing GFP-tagged eIF4E1b or eIF4E1c, wild-type lysates as control; 100 mM Tris-HCl pH 7.5, 150 mM NaCl, 0.05% Triton X-100; 4 °C overnight.
For the molecule zebrafish Dcp1, the binding result is reported as “no binding”.
Same read-out and setting: the same measure for “zebrafish Slbp2 (from UniProt A0ACM8QBM4 1-326)”: “binds”; for zebrafish eIF4ENIF1: “binds”.
As for zebrafish Larp6a (from UniProt Q6PHD4), the binding entry is reported as “binds”.
Same read-out and setting: the same measure for “zebrafish Dcp2 (from UniProt Q803B9 1-397) (enzyme)”: “no binding”.

The target in a further experiment is T1, 3xflag-sfGFP-eIF4E1b (zebrafish, full length) (zebrafish). Briefly: affinity purification with mass spectrometry; as a2, 8-cell embryos expressing GFP-tagged eIF4E1b, lysate treated with RNase I (1 unit per 500 μL lysate, 30 min, 37 °C).
zebrafish eIF4ENIF1: the binding result is “binds”.

Another experiment has the same target. Put plainly: affinity purification with mass spectrometry; anti-GFP agarose beads, lysates of transgenic zebrafish oocytes (early, late) and embryos (8-cell, 3 hpf) expressing GFP-tagged eIF4E1b or eIF4E1c, wild-type lysates as control; 100 mM Tris-HCl pH 7.5, 150 mM NaCl, 0.05% Triton X-100; 4 °C overnight. The source holds these as a separate data set.
For the molecule B1, the binding entry is given as “binds”.
The same measure, in the same setting: in the case of B2 it was “binds”.
As to B3, the binding entry is given as “no binding”.
